According to publication PMC4717182:
No constants are given. Whether binding was seen depends on the method and setting. In cells and extracts the contact can be indirect. Some binding calls cover weakened binding; strength is not graded here.

By UniProt entry, the sequences of proteins in these tests, tags left out.
UniProt P58801: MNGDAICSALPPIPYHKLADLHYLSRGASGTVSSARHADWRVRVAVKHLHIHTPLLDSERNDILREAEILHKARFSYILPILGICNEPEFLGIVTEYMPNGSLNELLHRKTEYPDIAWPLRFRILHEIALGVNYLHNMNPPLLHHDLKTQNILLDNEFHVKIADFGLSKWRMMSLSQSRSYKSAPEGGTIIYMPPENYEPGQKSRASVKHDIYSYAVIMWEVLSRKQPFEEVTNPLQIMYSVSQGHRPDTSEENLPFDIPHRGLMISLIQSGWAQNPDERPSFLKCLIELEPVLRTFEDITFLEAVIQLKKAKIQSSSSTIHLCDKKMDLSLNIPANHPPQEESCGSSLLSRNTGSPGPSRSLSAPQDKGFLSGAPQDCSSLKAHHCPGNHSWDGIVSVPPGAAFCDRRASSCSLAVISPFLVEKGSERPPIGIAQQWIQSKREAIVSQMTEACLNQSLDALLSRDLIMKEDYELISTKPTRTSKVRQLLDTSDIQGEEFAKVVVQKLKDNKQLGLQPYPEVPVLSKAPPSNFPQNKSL

Target: T1, CYLD (deubiquitinating enzyme), endogenous in murine bone marrow-derived macrophages (mouse (endogenous in BMDM)) (UniProt Q80TQ2)
T1 sequence: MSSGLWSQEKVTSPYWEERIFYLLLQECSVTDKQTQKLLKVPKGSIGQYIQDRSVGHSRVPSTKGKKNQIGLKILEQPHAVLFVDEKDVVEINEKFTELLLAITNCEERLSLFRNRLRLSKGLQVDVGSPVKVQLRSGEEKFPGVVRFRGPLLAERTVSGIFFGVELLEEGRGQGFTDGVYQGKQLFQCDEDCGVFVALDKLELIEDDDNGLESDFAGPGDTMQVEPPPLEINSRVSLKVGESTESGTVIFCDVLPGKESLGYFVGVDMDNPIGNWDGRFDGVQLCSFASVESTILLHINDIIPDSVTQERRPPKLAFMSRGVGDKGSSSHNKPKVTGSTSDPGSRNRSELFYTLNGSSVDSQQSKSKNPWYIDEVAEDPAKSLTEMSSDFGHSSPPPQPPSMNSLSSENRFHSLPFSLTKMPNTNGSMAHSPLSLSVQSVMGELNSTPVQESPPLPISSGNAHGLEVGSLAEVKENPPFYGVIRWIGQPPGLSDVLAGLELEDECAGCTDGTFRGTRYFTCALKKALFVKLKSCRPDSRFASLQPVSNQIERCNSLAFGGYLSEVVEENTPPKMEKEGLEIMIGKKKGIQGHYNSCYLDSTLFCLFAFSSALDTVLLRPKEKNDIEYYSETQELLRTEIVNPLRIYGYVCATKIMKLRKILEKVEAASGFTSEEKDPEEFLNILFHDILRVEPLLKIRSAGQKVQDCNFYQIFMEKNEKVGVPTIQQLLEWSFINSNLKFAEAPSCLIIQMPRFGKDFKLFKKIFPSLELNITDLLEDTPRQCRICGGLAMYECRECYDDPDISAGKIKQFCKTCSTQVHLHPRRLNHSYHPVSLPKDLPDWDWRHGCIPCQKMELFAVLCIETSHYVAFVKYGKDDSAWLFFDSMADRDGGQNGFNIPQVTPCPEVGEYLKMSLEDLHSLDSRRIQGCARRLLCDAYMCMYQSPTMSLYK
Test: co-IP; anti-CYLD antibody on lysates of IFN-γ stimulated, Lm-infected (MOI 5:1, 24 h) and uninfected WT and Cyld-/- BMDM; Gamma Bind G Sepharose, 4°C overnight; Western blot for CYLD and RIPK2

## receptor-interacting serine/threonine kinase 2 (RIPK2), endogenous in murine bone marrow-derived macrophages (from UniProt P58801 1-539) (enzyme)
  binding: binds
